# In US4382923A, “Tetrapeptide acylhydrazides, their production and use” (Takeda Chemical Industries, Ltd., priority 1980, dated 1983):
# Not every detail of the peptide structures is certain; ends, links or a residue may be inferred. Non-standard residues stand in square brackets, D forms with d. Residues, ends and D or L forms follow the SMILES beside them. *: point of attachment. NEtPhe = CCN[C@@H](Cc1ccccc1)C(=O)O; dMet(O) = CS(=O)CC[C@@H](N)C(=O)O; X1 = CC(=O)NN*
# Test system: Slc:ICR mice
# Assay: Phenylquinone writhing method
# Assay type: in vivo
# Settings: oral route
# Protocol: Phenylquinone writhing method
# The compound (I) of the present invention was administered orally or subcutaneously to Slc:ICR mice weighing 18-20 g. According to the method of E. Siegmund, R. Cadmus and G. Lu [Proc. Soc.Exp.Biol, Med. 95, 729 (1957)], 0.02% phenylquinone in 5% ethanol saline was injected intraperitoneally in a dose of 0.1 ml/10 g body weight 30 min. after administration of the compound (I). The frequency of abdominal writhing was then counted for 20 min. Analgesic effect was indicated by comparing test group with control group.
compound,measurement,setting,value
CCN(C(=O)CNC(=O)[C@@H](CC[S+](C)[O-])NC(=O)[C@@H](N)Cc1ccc(O)cc1)[C@@H](Cc1ccccc1)C(=O)NNC(C)=O (some centres unmarked) [H-Tyr-(D)-Met(O)-Gly-EtPhe-NHNHCOCH3] (H-Y[dMet(O)]G[NEtPhe]-X1),analgesic activity relative to morphine,,about 32 times
same,"effective dose, analgesic effect (abdominal writhing)","phenylquinone i.p. 30 min after administration, writhing counted for 20 min",0.078 mg/l kg body weight
